PubChem BioAssay AID1259254, NCATS – 2017

- Assay: 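Genome-wide screen for genes that prevent DNA re-replication in cancer cells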 (primary screen)
- Cell system: human HCT116 colorectal cancer cells
- Reagents: single siRNA against human genes
- Timing: 3 days
- Read-out: 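Imaged Hoechst DNA stain sorts each cell into a cycle phase by DNA amount; per plate, G2 fraction set to 0% for non-targeting and 100% for GMNN siRNA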
- Scale: G2 robust z-score and G2 cells, % of GMNN control: higher = more G2 cells, more excess DNA replication
- Hit rule: 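An siRNA counts as active if its G2 robust z-score lies at least 5 MADs above the screen median; here such calls match roughly 38% of GMNN control or more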
The deposit covers about 59,000 reagents; below is an unselected part. In the full data, about 1,550 (2.6%) were called active. 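G2 share is only a proxy for re-replication; each gene was hit by three separate siRNAs, and active genes were retested.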 Reagents against one gene are numbered here. Further read-outs or replicates are left out here. Not given: the amount of reagent.

| Target gene | siRNA no. | G2 robust z-score | G2 cells, % of GMNN control | Call |
| --- | --- | --- | --- | --- |
| CNN2 (calponin 2) | 1 | 3.37 | 26.7 | inactive |
| CNN2 (calponin 2) | 2 | 5.27 | 40.1 | active |
| CNN2 (calponin 2) | 3 | 0.339 | 5.35 | inactive |
| VPS25 (vacuolar protein sorting 25 homolog) | 1 | 2.1 | 17.7 | inactive |
| VPS25 (vacuolar protein sorting 25 homolog) | 2 | -0.498 | -0.535 | inactive |
| VPS25 (vacuolar protein sorting 25 homolog) | 3 | -0.72 | -2.1 | inactive |
| EEF1B2P6 | 1 | -0.205 | 1.52 | inactive |
| EEF1B2P6 | 2 | 0.759 | 8.31 | inactive |
| EEF1B2P6 | 3 | 0.818 | 8.72 | inactive |
| HPCAL1 (hippocalcin like 1) | 1 | -0.134 | 2.02 | inactive |
| HPCAL1 (hippocalcin like 1) | 2 | -0.247 | 1.23 | inactive |
| HPCAL1 (hippocalcin like 1) | 3 | 0.0576 | 3.37 | inactive |
| RANBP3 (RAN binding protein 3) | 1 | 1.04 | 10.3 | inactive |
| RANBP3 (RAN binding protein 3) | 2 | -0.714 | -2.06 | inactive |
| RANBP3 (RAN binding protein 3) | 3 | 1.18 | 11.3 | inactive |
| MBOAT1 (membrane bound glycerophospholipid O-acyltransferase 1) | 1 | -1.41 | -6.95 | inactive |
| MBOAT1 (membrane bound glycerophospholipid O-acyltransferase 1) | 2 | 0.502 | 6.5 | inactive |
| MBOAT1 (membrane bound glycerophospholipid O-acyltransferase 1) | 3 | -0.615 | -1.36 | inactive |
| DSCAM (DS cell adhesion molecule) | 1 | -0.835 | -2.9 | inactive |
| DSCAM (DS cell adhesion molecule) | 2 | 0.03 | 3.18 | inactive |
| DSCAM (DS cell adhesion molecule) | 3 | -0.0574 | 2.56 | inactive |
| BCL2L10 (BCL2 like 10) | 1 | 2.14 | 18 | inactive |
| BCL2L10 (BCL2 like 10) | 2 | -0.861 | -3.09 | inactive |
| BCL2L10 (BCL2 like 10) | 3 | -0.766 | -2.42 | inactive |
| SLC41A2 | 1 | 1.95 | 16.7 | inactive |
| SLC41A2 | 2 | 1.33 | 12.3 | inactive |
| SLC41A2 | 3 | 0.137 | 3.93 | inactive |
| ZNF80 (zinc finger protein 80) | 1 | -1.15 | -5.15 | inactive |
| ZNF80 (zinc finger protein 80) | 2 | -0.647 | -1.59 | inactive |
| ZNF80 (zinc finger protein 80) | 3 | -0.317 | 0.738 | inactive |
| PTPRS (protein tyrosine phosphatase receptor type S) | 1 | -0.275 | 1.04 | inactive |
| PTPRS (protein tyrosine phosphatase receptor type S) | 2 | 0.189 | 4.3 | inactive |
| PTPRS (protein tyrosine phosphatase receptor type S) | 3 | -0.121 | 2.12 | inactive |
| ADAMTS13 (ADAM metallopeptidase with thrombospondin type 1 motif 13) | 1 | 1.24 | 11.7 | inactive |
| ADAMTS13 (ADAM metallopeptidase with thrombospondin type 1 motif 13) | 2 | -0.116 | 2.15 | inactive |
| ADAMTS13 (ADAM metallopeptidase with thrombospondin type 1 motif 13) | 3 | 0.817 | 8.71 | inactive |
| FAT2 (FAT atypical cadherin 2) | 1 | -0.604 | -1.28 | inactive |
| FAT2 (FAT atypical cadherin 2) | 2 | -0.532 | -0.777 | inactive |
| FAT2 (FAT atypical cadherin 2) | 3 | -0.993 | -4.02 | inactive |
| ZNF135 (zinc finger protein 135) | 1 | -0.885 | -3.26 | inactive |
| ZNF135 (zinc finger protein 135) | 2 | -0.758 | -2.37 | inactive |
| ZNF135 (zinc finger protein 135) | 3 | -0.402 | 0.142 | inactive |
| CCDC187 (coiled-coil domain containing 187) | 1 | 4.12 | 32 | inactive |
| CCDC187 (coiled-coil domain containing 187) | 2 | -0.473 | -0.363 | inactive |
| CCDC187 (coiled-coil domain containing 187) | 3 | -1.15 | -5.15 | inactive |
| STK32C (serine/threonine kinase 32C) | 1 | -1.23 | -5.66 | inactive |
| STK32C (serine/threonine kinase 32C) | 2 | 0.275 | 4.9 | inactive |
| STK32C (serine/threonine kinase 32C) | 3 | -0.581 | -1.12 | inactive |
| FAM81B (family with sequence similarity 81 member B) | 1 | 0.601 | 7.2 | inactive |
| FAM81B (family with sequence similarity 81 member B) | 2 | 0.42 | 5.92 | inactive |
| FAM81B (family with sequence similarity 81 member B) | 3 | 0.0357 | 3.22 | inactive |
| ZNF442 (zinc finger protein 442) | 1 | 2.27 | 18.9 | inactive |
| ZNF442 (zinc finger protein 442) | 2 | 1.02 | 10.1 | inactive |
| ZNF442 (zinc finger protein 442) | 3 | -0.0504 | 2.61 | inactive |
| AMBRA1 (autophagy and beclin 1 regulator 1) | 1 | 0.712 | 7.98 | inactive |
| AMBRA1 (autophagy and beclin 1 regulator 1) | 2 | 0.194 | 4.33 | inactive |
| AMBRA1 (autophagy and beclin 1 regulator 1) | 3 | -0.438 | -0.114 | inactive |
| LY6D (lymphocyte antigen 6 family member D) | 1 | 0.258 | 4.78 | inactive |
| LY6D (lymphocyte antigen 6 family member D) | 2 | -0.526 | -0.736 | inactive |
| LY6D (lymphocyte antigen 6 family member D) | 3 | 1.38 | 12.7 | inactive |
| ISYNA1 (inositol-3-phosphate synthase 1) | 1 | -1.01 | -4.16 | inactive |
| ISYNA1 (inositol-3-phosphate synthase 1) | 2 | -0.173 | 1.75 | inactive |
| ISYNA1 (inositol-3-phosphate synthase 1) | 3 | 0.0973 | 3.65 | inactive |
| ELAC1 (elaC ribonuclease Z 1) | 1 | -1.61 | -8.37 | inactive |
| ELAC1 (elaC ribonuclease Z 1) | 2 | -0.802 | -2.67 | inactive |
| ELAC1 (elaC ribonuclease Z 1) | 3 | -0.567 | -1.02 | inactive |
| SPIN1 (spindlin 1) | 1 | 0.957 | 9.7 | inactive |
| SPIN1 (spindlin 1) | 2 | -0.00469 | 2.93 | inactive |
| SPIN1 (spindlin 1) | 3 | -0.707 | -2.01 | inactive |
| BEX3 (brain expressed X-linked 3) | 1 | 1.16 | 11.1 | inactive |
| BEX3 (brain expressed X-linked 3) | 2 | 4.51 | 34.7 | inactive |
| BEX3 (brain expressed X-linked 3) | 3 | -0.579 | -1.11 | inactive |
| SH3GLB1 (SH3 domain containing GRB2 like, endophilin B1) | 1 | -0.257 | 1.16 | inactive |
| SH3GLB1 (SH3 domain containing GRB2 like, endophilin B1) | 2 | 6.79 | 50.7 | active |
| SH3GLB1 (SH3 domain containing GRB2 like, endophilin B1) | 3 | 1.01 | 10.1 | inactive |
| TINF2 (TERF1 interacting nuclear factor 2) | 1 | 1.93 | 16.6 | inactive |
| TINF2 (TERF1 interacting nuclear factor 2) | 2 | 0.387 | 5.69 | inactive |
| TINF2 (TERF1 interacting nuclear factor 2) | 3 | 0.394 | 5.74 | inactive |
| MAP4K3 (mitogen-activated protein kinase kinase kinase kinase 3) | 1 | -1.33 | -6.41 | inactive |
| MAP4K3 (mitogen-activated protein kinase kinase kinase kinase 3) | 2 | -0.338 | 0.589 | inactive |
| MAP4K3 (mitogen-activated protein kinase kinase kinase kinase 3) | 3 | -1.08 | -4.62 | inactive |
| SLC2A5 | 1 | 1.66 | 14.7 | inactive |
| SLC2A5 | 2 | 0.273 | 4.89 | inactive |
| SLC2A5 | 3 | 0.94 | 9.58 | inactive |
| SPOCK2 | 1 | -0.714 | -2.06 | inactive |
| SPOCK2 | 2 | 1.23 | 11.6 | inactive |
| SPOCK2 | 3 | -0.924 | -3.54 | inactive |

An excerpt from above, showing only “G2 cells, % of GMNN control”:
ELAC1 (elaC ribonuclease Z 1) #2 = -2.67
ELAC1 (elaC ribonuclease Z 1) #3 = -1.02
SPIN1 (spindlin 1) #1 = 9.7
SPIN1 (spindlin 1) #2 = 2.93
SPIN1 (spindlin 1) #3 = -2.01
BEX3 (brain expressed X-linked 3) #1 = 11.1
BEX3 (brain expressed X-linked 3) #2 = 34.7
BEX3 (brain expressed X-linked 3) #3 = -1.11
SH3GLB1 (SH3 domain containing GRB2 like, endophilin B1) #1 = 1.16
SH3GLB1 (SH3 domain containing GRB2 like, endophilin B1) #2 = 50.7
